Source: PubChem BioAssay AID540275 (National Center for Advancing Translational Sciences (NCATS), 2011)
In all, about 320,000 compounds went through this assay and about 620 (0.19%) were called active. Inconclusive results, whose numbers are uncertain, are shown with a selection of clear calls. Cut-off read from the data, not from the text of the source: active = activation above about 80%; inconclusive = between about 30% and that limit; inactive = weaker than that.

Chains of the proteins cited; added tags and fusions are not shown.
UniProt Q8NER1, whole entry, looked up: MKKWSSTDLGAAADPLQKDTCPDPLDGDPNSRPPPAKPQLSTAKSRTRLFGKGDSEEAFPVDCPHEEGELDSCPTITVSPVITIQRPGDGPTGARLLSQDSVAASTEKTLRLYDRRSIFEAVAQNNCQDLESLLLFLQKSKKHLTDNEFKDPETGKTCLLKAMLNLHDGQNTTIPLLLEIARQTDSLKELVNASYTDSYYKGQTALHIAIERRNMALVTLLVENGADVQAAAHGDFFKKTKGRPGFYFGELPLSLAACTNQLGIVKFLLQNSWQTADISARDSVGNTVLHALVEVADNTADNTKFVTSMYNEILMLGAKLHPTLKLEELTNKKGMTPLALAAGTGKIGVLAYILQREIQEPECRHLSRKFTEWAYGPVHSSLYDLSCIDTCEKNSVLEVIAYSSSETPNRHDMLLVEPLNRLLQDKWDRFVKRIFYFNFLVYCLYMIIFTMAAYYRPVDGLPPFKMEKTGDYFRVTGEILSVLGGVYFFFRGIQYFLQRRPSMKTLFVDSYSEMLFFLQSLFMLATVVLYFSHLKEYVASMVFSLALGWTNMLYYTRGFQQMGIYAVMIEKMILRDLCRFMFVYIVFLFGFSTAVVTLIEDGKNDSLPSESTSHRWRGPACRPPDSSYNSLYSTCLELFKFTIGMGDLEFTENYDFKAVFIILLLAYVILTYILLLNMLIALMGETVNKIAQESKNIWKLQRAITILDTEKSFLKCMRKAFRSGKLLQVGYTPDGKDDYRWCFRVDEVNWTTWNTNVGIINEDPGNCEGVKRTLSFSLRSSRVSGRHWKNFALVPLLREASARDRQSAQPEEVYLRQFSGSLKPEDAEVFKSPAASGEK

Target: Transient receptor potential cation channel subfamily V member 1 (Homo sapiens) (UniProt Q8NER1)
Test: HTS Assay for Compounds that Act as Agonists of the Vanilloid Receptor 1; note: 0% is about no effect
Details: TRPV1-expressing cells, Fluo-8 calcium influx, agonist mode; at 8.33 µM, active compounds read high
Method in brief: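 Fluo-8 calcium influx in TRPV1-expressing cells, kinetic read (ex 480/em 520 nm). Compound added and read 3 min for agonist activity, followed by capsaicin at EC20 final and 2 min further read for enhancement.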

Row | SMILES | activation
1 | O=C(Nc1nc(-c2cc3ccccc3o2)cs1)c1ccc(S(=O)(=O)N2CCCC2)cc1 | inactive: -1.36%
2 | CC(C)CCn1c(SCC(=O)NC2CCS(=O)(=O)C2)nc2cc(Cl)ccc2c1=O (configuration not stated) | inconclusive: 39.1%
3 | S=C(NCc1cccc(Cl)c1)NC1CCCCC1 | inconclusive: 55.5%
4 | CC(Oc1cccc(Cl)c1)C(=O)Nc1ccncc1 (configuration not stated) | inconclusive: 52.8%
5 | Cc1cccc(C)c1OCC(=O)Nc1cc(Cl)ccc1-n1cncn1 | inconclusive: 39%
6 | COC(=O)C1Cc2c([nH]c3ccccc23)C2(CCN(Cc3ccccc3)CC2)N1 (configuration not stated) | inactive: -2.52%
7 | O=C1C=C(Nc2ccccc2)CC(c2ccccc2)C1 (configuration not stated) | inconclusive: 37.4%
8 | O=C(N/N=C/c1ccsc1)c1cc2ccccc2o1 | inconclusive: 66.4%
9 | COc1cc(CC(=O)OCC(=O)N2CC(=O)Nc3ccccc32)cc(OC)c1OC | inactive: 2.62%
10 | CCCc1ccc(C(=O)NNc2ccccc2F)cc1 | inconclusive: 30.8%
11 | Cc1cc(OCC(=O)N(C)Cc2ccccc2)ccc1Cl | inconclusive: 36.2%
12 | CCN1C(=O)c2ccc(C(=O)Nc3cccc(C(=O)O)c3)cc2C1=O | inactive: 1.19%
13 | Cc1ccc(SC(C)C(=O)N2CCN(c3ccccc3)CC2)cc1 (configuration not stated) | inconclusive: 60.5%
14 | NNC(=O)CN1C(c2cccc(Cl)c2)=Nc2ccc(Br)cc2C1c1ccccc1 (configuration not stated) | inactive: -0.185%
15 | COCCNC(=O)Cc1ccc(F)cc1 | inactive: -1.28%
16 | Cc1cc(C)n(-c2ccc(C(=O)Nc3ccc(N4CCOCC4)cc3)cc2)n1 | inconclusive: 59.6%
17 | O=C(COC(=O)c1cccc(S(=O)(=O)N2CCCCC2)c1)NC1CCCCC1 | inconclusive: 31%
18 | c1ccc(CNc2c3c(nc4ncnn24)CCC3)cc1 | inactive: -8.9%
19 | O=C(N/N=C/c1cccc2cccnc12)c1ccccc1O | inactive: 15.1%
20 | CNC(=O)c1cccc(NC(=O)C(C)c2ccc3cc(OC)ccc3c2)c1 (configuration not stated) | inconclusive: 40.5%
21 | OCc1nc2ccccc2n1Cc1c(F)cccc1Cl | inactive: 2.31%
22 | CNC(=S)/N=C/NOCc1ccc(Cl)cc1Cl | inconclusive: 60.3%
23 | NS(=O)(=O)c1ccc(NC(=O)C(=O)NCCC(=O)O)cc1 | inactive: -4.41%

Individual results from the results shown.
Under activation, O=C1C=C(Nc2ccccc2)CC(c2ccccc2)C1 (configuration not stated) is entered as inconclusive: 37.4%
Under activation, Cc1cc(C)n(-c2ccc(C(=O)Nc3ccc(N4CCOCC4)cc3)cc2)n1 is entered as inconclusive: 59.6%

Additional structures

Row | SMILES | activation
24 | Cc1ccc(/C=C/C(=O)N2CCCC(C)C2)cc1 (configuration not stated) | inconclusive: 57.3%
25 | CCc1ccc(N(C(=O)CCC(=O)Nc2cc(C)on2)C(C(=O)NC2CCCC2)c2ccco2)cc1 (configuration not stated) | inconclusive: 30.1%
26 | COc1ccc(CCNC(=O)c2cccc3c2C(=O)N(C2CCCCC2)C3)cc1OC | inconclusive: 40.8%
27 | CCCNC(=O)C(Cc1ccc(I)cc1)NC(=O)c1ccc2ccccc2n1 (configuration not stated) | inconclusive: 37%
28 | CCOC(=O)[C@H]1[C@H]2COc3cc(OC)ccc3[C@@H]2N2C(=O)c3ccc(F)cc3NC(=O)[C@@]12C | inconclusive: 46%
29 | Cc1ccc(CNC(=O)CSc2c3c(nc4ccc(Cl)cc24)CCCC3)o1 | inconclusive: 50.8%
30 | Cc1nc2c3ccccc3nc(NNC(=O)CCC(=O)N3CCN(c4ccccc4F)CC3)n2n1 | inconclusive: 39.2%
31 | C=CCn1c(SCC(=O)Nc2ccc(N3CCOCC3)cc2)nnc1-c1ccncc1 | inactive: -0.55%
32 | O=C(c1ccc(F)cc1)C1CCN(C(=O)N2CCOCC2)CC1 | inconclusive: 72.3%
33 | O=C(CCC1COc2ccccc2O1)NCc1ccccc1 (configuration not stated) | inconclusive: 64.1%
34 | CC(CCc1ccco1)NC(=O)c1cccc2c1C(=O)N(C1CCCCC1)C2 (configuration not stated) | inconclusive: 52.9%
35 | COc1ccc2nc(/C=N/NC(=O)[C@H](CCSC)NC(=O)OC(C)(C)C)ccc2c1 | inactive: -2.39%
36 | Nc1nc(SCC(=O)c2c(N)n(Cc3ccccc3)c(=O)[nH]c2=O)n[nH]1 | inactive: 0.502%
37 | O=C(NCC1CC1(Cl)Cl)Nc1ccc(Cl)c(Cl)c1 (configuration not stated) | inconclusive: 52.2%
38 | CC1CN(c2nc(-c3ccccc3)nnc2-c2ccccc2)CC(C)O1 (configuration not stated) | inconclusive: 30.2%
39 | NC(=S)N/N=C\c1c(OCc2ccccc2Cl)ccc2ccccc12 | inactive: -2.86%
40 | COc1ccccc1NC(=O)c1c(C)nn(-c2ccccc2)c1Cl | inconclusive: 45.6%
41 | CC(C)(C)c1ccc(NC(=O)N2CCN(c3ccc([N+](=O)[O-])cn3)CC2)cc1 | inconclusive: 71%
42 | COCCOc1cc(N(CC(=O)N(C)C)S(=O)(=O)c2ccccc2)c(Cl)cc1Cl | inconclusive: 40.8%
43 | O=C(Cc1cccs1)NCCn1ccc2ccccc21 | inconclusive: 64.7%
44 | N#CCN=C(c1ccccc1)c1ccccc1 | inactive: 4%
45 | Cc1ccc(C(=O)Nc2ccc(C(=O)/C=C/c3cccs3)cc2)cc1 | inconclusive: 40.1%
46 | O=C(NCc1cccs1)c1cc(-c2cccs2)on1 | inconclusive: 31.7%

Row | SMILES | activation
47 | COc1ccc(NC(=O)NCCCCc2ccccc2)cc1 | inconclusive: 61.7%
48 | CN(C(=O)c1ccco1)c1nc(-c2ccccc2)cs1 | inconclusive: 40.2%
49 | COC(=O)c1[nH]c2cc(OC)ccc2c1NC(=O)CCN1CCN(c2cccc(C)c2C)CC1 | inconclusive: 55.3%
50 | CCOC(=O)N1CCN(C(=O)COc2cccc3c2CCN(Cc2ccccc2C)C3=O)CC1 | inactive: 2.47%
51 | COc1ccc(-c2cc(C#N)nc(Cl)n2)cc1 | inactive: -4.5%
52 | CNC(=O)CSc1ncnc2c1cnn2-c1ccccc1 | inconclusive: 39.6%
53 | CCc1nnc(NC(=O)CCC(=O)N2CCC(Cc3ccccc3)CC2)s1 | inactive: 9.93%
54 | Cc1cccc(C(=O)NN2C(=O)C3C(c4ccccc4)C=CC(c4ccccc4)C3C2=O)c1 (configuration not stated) | inconclusive: 43.9%
55 | O=C(Nc1cccc([N+](=O)[O-])c1)Nc1ccc2c(c1)CCC2 | inconclusive: 62%
56 | Cc1ccc(C(=O)CSc2nnc(-c3snnc3C)n2C2CC2)cc1 | inconclusive: 32.6%
57 | O=C(Nc1ccc(Cl)c(Cl)c1)Nc1cc(C(=O)NC2CC2)ccc1Cl | inactive: -0.443%
58 | Cc1ccc([N+](=O)[O-])c(C(=O)N/N=C/c2cccnc2)c1 | inconclusive: 65%
59 | CCOC(=O)c1ccc(NC(=O)c2ccco2)cc1 | inconclusive: 45.9%
60 | Cc1ccc(C2=NC3(CCCCC3)N=C2SCC(=O)Nc2ccc3c(c2)OCCO3)cc1 | inactive: -6.49%
61 | CC(C)CC(C(=O)Nc1cccc(O)c1)N1C(=O)c2ccccc2C1=O (configuration not stated) | inconclusive: 39.8%
62 | N#CCCn1cc(C(N)=O)c(-c2ccc3ccccc3c2)n1 | inactive: -0.806%
63 | COC(=O)C1=CN(C2CC2)C=C(C(=O)OC)C1c1ccccc1OC | inconclusive: 48.2%
64 | Clc1ccccc1-c1nnc2sc(-c3ccncc3)nn12 | inactive: 1.35%
65 | COc1ccc(Nc2ncc3c(n2)CC(c2ccccc2)CC3=O)cc1 (configuration not stated) | inactive: 5.6%
66 | Cc1ccc(C2NC(=O)c3ccccc3N2)s1 (configuration not stated) | inactive: 0.532%
67 | CN(CC(=O)Nc1cccc(F)c1)C(=O)CCCc1c[nH]c2ccccc12 | inactive: 0.0056%
68 | CCCc1nc(SCC(=O)Nc2nnc(CC)s2)c2c(=O)n(C)c(=O)n(C)c2n1 | inactive: 3.46%
69 | COc1cccc(OCc2cc(C(=O)N3CCN(C)C(c4ccccc4)C3)no2)c1 (configuration not stated) | inconclusive: 59.7%

Of the compounds above, these have sulfur:
Row | SMILES | activation
1 | O=C(Nc1nc(-c2cc3ccccc3o2)cs1)c1ccc(S(=O)(=O)N2CCCC2)cc1 | inactive: -1.36%
2 | CC(C)CCn1c(SCC(=O)NC2CCS(=O)(=O)C2)nc2cc(Cl)ccc2c1=O (configuration not stated) | inconclusive: 39.1%
3 | S=C(NCc1cccc(Cl)c1)NC1CCCCC1 | inconclusive: 55.5%
8 | O=C(N/N=C/c1ccsc1)c1cc2ccccc2o1 | inconclusive: 66.4%
13 | Cc1ccc(SC(C)C(=O)N2CCN(c3ccccc3)CC2)cc1 (configuration not stated) | inconclusive: 60.5%
17 | O=C(COC(=O)c1cccc(S(=O)(=O)N2CCCCC2)c1)NC1CCCCC1 | inconclusive: 31%
22 | CNC(=S)/N=C/NOCc1ccc(Cl)cc1Cl | inconclusive: 60.3%
23 | NS(=O)(=O)c1ccc(NC(=O)C(=O)NCCC(=O)O)cc1 | inactive: -4.41%
29 | Cc1ccc(CNC(=O)CSc2c3c(nc4ccc(Cl)cc24)CCCC3)o1 | inconclusive: 50.8%
31 | C=CCn1c(SCC(=O)Nc2ccc(N3CCOCC3)cc2)nnc1-c1ccncc1 | inactive: -0.55%
35 | COc1ccc2nc(/C=N/NC(=O)[C@H](CCSC)NC(=O)OC(C)(C)C)ccc2c1 | inactive: -2.39%
36 | Nc1nc(SCC(=O)c2c(N)n(Cc3ccccc3)c(=O)[nH]c2=O)n[nH]1 | inactive: 0.502%
39 | NC(=S)N/N=C\c1c(OCc2ccccc2Cl)ccc2ccccc12 | inactive: -2.86%
42 | COCCOc1cc(N(CC(=O)N(C)C)S(=O)(=O)c2ccccc2)c(Cl)cc1Cl | inconclusive: 40.8%
43 | O=C(Cc1cccs1)NCCn1ccc2ccccc21 | inconclusive: 64.7%
45 | Cc1ccc(C(=O)Nc2ccc(C(=O)/C=C/c3cccs3)cc2)cc1 | inconclusive: 40.1%
46 | O=C(NCc1cccs1)c1cc(-c2cccs2)on1 | inconclusive: 31.7%
48 | CN(C(=O)c1ccco1)c1nc(-c2ccccc2)cs1 | inconclusive: 40.2%
52 | CNC(=O)CSc1ncnc2c1cnn2-c1ccccc1 | inconclusive: 39.6%
53 | CCc1nnc(NC(=O)CCC(=O)N2CCC(Cc3ccccc3)CC2)s1 | inactive: 9.93%
56 | Cc1ccc(C(=O)CSc2nnc(-c3snnc3C)n2C2CC2)cc1 | inconclusive: 32.6%
60 | Cc1ccc(C2=NC3(CCCCC3)N=C2SCC(=O)Nc2ccc3c(c2)OCCO3)cc1 | inactive: -6.49%
64 | Clc1ccccc1-c1nnc2sc(-c3ccncc3)nn12 | inactive: 1.35%
66 | Cc1ccc(C2NC(=O)c3ccccc3N2)s1 (configuration not stated) | inactive: 0.532%
68 | CCCc1nc(SCC(=O)Nc2nnc(CC)s2)c2c(=O)n(C)c(=O)n(C)c2n1 | inactive: 3.46%

(next part)

Row | SMILES | activation
70 | O=C(NCCCNc1ccc(C(F)(F)F)cc1[N+](=O)[O-])c1ccc(F)cc1 | inconclusive: 68.4%
71 | COc1ccc([C@@H]2[C@H]3C(=O)N(c4cccc(C(F)(F)F)c4)C(=O)[C@H]3ON2C)cc1 | inconclusive: 42.3%
72 | Cc1cc2ccccc2n1CCNC(=O)C(C)(C)C | inconclusive: 33.8%
73 | O=C(Cc1ccc(F)cc1)Nc1cccc(-c2ccc3nncn3n2)c1 | inactive: -1.03%
74 | COc1ccc2nc(NC(=O)c3cc(C)oc3C)sc2c1 | inconclusive: 36%
75 | COc1ccc(C(=O)NC(=S)N(C)C2CCCCC2)cc1Br | inconclusive: 35.1%
76 | Cc1ccc2[nH]c3c(c2c1)CN(C(=O)CN1CCN(c2ccccc2)CC1)CC3 | inconclusive: 52.4%
77 | COc1cc(CNn2cn[nH]c2=S)cc(Cl)c1OCc1ccc(F)cc1 | inconclusive: 39.5%
78 | CC(C)c1ccc(/C=C/C(=O)NC(=S)NN2CCOCC2)cc1 | inactive: -4.13%
79 | CC(OC(=O)c1ccc(S(=O)(=O)N2CCOCC2)cc1)c1ccccc1 (configuration not stated) | inconclusive: 50.4%
80 | O=C(CSc1ccccc1)N1CCN(S(=O)(=O)c2ccccc2)CC1 | inconclusive: 34.2%
81 | CCCCCCC(=O)Oc1cccc(N2C(=O)C3CCCCC3C2=O)c1 (configuration not stated) | inconclusive: 33.4%
82 | CC(=O)c1cccc(NC(=O)CCS(=O)(=O)c2ccc(Br)s2)c1 | inconclusive: 61.4%
83 | CC(C)(C)OC(=O)N1CCC(CNC(=O)c2ccccc2)CC1 | inconclusive: 32%
84 | CC(=O)C1=C(O)C(=O)N(Cc2ccco2)C1c1ccccc1F (configuration not stated) | inactive: -8.4%
85 | O=C(COc1ccc2c(c1)CCC2)Nc1ccccn1 | inconclusive: 65.1%
86 | O=C1Cn2c(nc3ccccc32)N1c1cccc(C(F)(F)F)c1 | inconclusive: 34.6%
87 | COc1ccccc1C(=O)NC(=O)CSc1nc(C)cs1 | inactive: 6.31%
88 | CNC(=S)Nc1ccc(C)cc1 | inactive: 1.38%
89 | CCCOC(=O)CSc1nc(N2CCOCC2)c2c(c1C#N)CC(C)(C)OC2 | inconclusive: 63.9%
90 | O=C(N/N=C/c1ccc(Br)cc1)c1ccc(F)cc1 | inconclusive: 71.4%
91 | Cc1ccc(CC2CC(=O)N(c3ccc(C)cc3)C2=O)cc1 (configuration not stated) | inactive: 7.49%
92 | O=C(NCCO)/C(=C/c1ccc2c(c1)OCO2)NC(=O)c1ccc(Br)cc1 | inconclusive: 43.7%
